Data as given in PubChem BioAssay AID540276 (National Center for Advancing Translational Sciences (NCATS), 2011).
Among all 300,000 compounds or so, about 5,400 (1.8%) were called active. Inconclusive results, whose numbers are uncertain, are shown with a selection of clear calls. Calls follow the shape of the full dose curve; tested in HEK293 cells. A potency beside an inconclusive call is a rough fit, not a confirmed value.

experiment: qHTS for inhibitors of binding or entry into cells for Marburg Virus; details: Marburg virus pseudotyped entry inhibition, cell reporter; series mostly up to 37.8 µM
Potency is read from the fitted curve at half-maximal effect.

Compound | Potency
CCc1cc2c(SCc3nc4sc(C(C)=O)c(C)c4c(=O)[nH]3)ncnc2s1 | inconclusive: 10 µM [inhibitor, partial curve]
CC#CCN1c2ccccc2[C@]23CCC(=O)N(Cc4cccc(C(F)(F)F)c4)C2=NC(C(=O)OC)=C(C(=O)OC)[C@H]13 | inactive
O=C(CSc1ncccn1)NC1CCCc2ccccc21 (stereo not drawn) | inactive
O=C(CSc1nnc(-c2ccco2)n1Cc1ccccc1)NC(=O)NCc1ccccc1 | inactive
CCN1CCN(c2cc(C)c3cc(NC(=O)c4ccc(OC)c(OC)c4)ccc3n2)CC1 | inconclusive: 35.5 µM [inhibitor, single point]
CCOc1ccc(-c2nnc(-c3ccncc3)o2)cc1OCC | inconclusive: 6.31 µM [activator, single point]
CC(NC(=O)N(Cc1ccccc1)Cc1ccc2c(c1)OCO2)(C(F)(F)F)C(F)(F)F | inconclusive: 23.1 µM [inhibitor, single point]
CCc1cccc(CC)c1NC(=O)COC(=O)CC1c2ccccc2CCN1S(=O)(=O)c1ccccc1 (stereo not drawn) | inconclusive: 12.6 µM [inhibitor, partial curve, poor fit]
COc1ccc(C2CC(=O)C=C(O)C2)cc1 (stereo not drawn) | inconclusive: 0.316 µM [activator, partial curve, poor fit]
CN(Cc1nc2ccccc2c(=O)[nH]1)CC(O)COCc1ccco1 (stereo not drawn) | inactive
Cc1ccccc1-c1nc(Cc2ccccc2)no1 | inconclusive: 6.31 µM [activator, partial curve]
O=C(CSc1nc2ccccc2c(=O)n1CC1CCCO1)NCc1ccccc1 (stereo not drawn) | inactive
COc1ccc(CN2CCN(C(=O)c3cc(-c4cccnc4)nc4ccc(Cl)cc34)CC2)c(OC)c1OC | inconclusive: 35.5 µM [inhibitor, partial curve, poor fit]
O=C(NCC1CCCN(Cc2ccccc2F)C1)c1cccc(C(F)(F)F)c1 (stereo not drawn) | inconclusive: 29.1 µM [inhibitor, single point]
C=CCn1c(=S)[nH]c2nc3c(cc2c1=O)CCCC3 | inactive
COc1ccccc1-n1c(/C=C/c2ccccn2)nc2ccccc2c1=O | inconclusive: 12.6 µM [inhibitor, partial curve, poor fit]
O=C(CSc1nnc(COc2cccc3cccnc23)o1)c1ccc(F)cc1 | inactive
O=C(NC1=NCCS1)c1cc(-c2cccnc2)nc2ccccc12 | inconclusive: 35.5 µM [inhibitor, single point]
CC(C)c1ccc(CN(C(=O)C2COc3ccccc3O2)C2CCS(=O)(=O)C2)cc1 (stereo not drawn) | inconclusive: 29.1 µM [inhibitor, single point]
Cc1ccn2cc(-c3cccc(NC(=O)c4cccs4)c3)nc2c1 | inconclusive: 35.5 µM [inhibitor, single point]
O=C(O)C1CC(c2ccccc2F)=NO1 (stereo not drawn) | inconclusive: 29.1 µM [activator, partial curve, poor fit]
CC1=CC2=NC(=O)C(c3ccccc3)C(=O)N2C=C1 (stereo not drawn) | inconclusive: 35.5 µM [activator, single point]

Compound | Potency
Cc1ccc(Sc2ccc(N3CCCC(C(=O)Nc4ccc(F)cc4F)C3)nn2)cc1 (stereo not drawn) | inconclusive: 6.31 µM [inhibitor, single point]
COc1ccc(N(CC(=O)NCCc2ccc(Cl)cc2)S(=O)(=O)c2c(C)nn(C)c2C)cc1 | inconclusive: 35.5 µM [inhibitor, single point]
CC1CN(C(=O)c2cc3c(=O)n4ccccc4nc3n2C)CC(C)O1 (stereo not drawn) | inconclusive: 7.94 µM [activator, partial curve, poor fit]
C=C(C)COc1ccc(-c2nc(N)ncc2-c2ccccc2OC)c(O)c1 | inconclusive: 0.891 µM [inhibitor, partial curve, poor fit]
CCOc1ccc(C(=O)C(CN2CCOCC2)c2ccccc2)cc1 (stereo not drawn) | active: 6.51 µM
CCN1CCN(S(=O)(=O)c2ccc(Cl)c(C(=O)Nc3nnc(C)s3)c2)CC1 | inactive
CCCCc1cc2c(cn1)=C(OC(=O)c1cccs1)C(C)(OC(=O)CC)C(=O)C=2 (stereo not drawn) | inactive
CN1CCN(C2Cc3ccccc3Sc3ccc(Cl)cc32)CC1 (stereo not drawn) | active: 15.8 µM
CCOC(=O)Cn1c(=O)sc2ccccc21 | inconclusive: 14.6 µM [activator, partial curve, poor fit]
C=CCNC(=O)Cc1c(OC)ccc2cc(Br)ccc12 | inactive
CCc1ccc(C(=O)OCC(=O)c2c(N)n(CC(C)C)c(=O)n(C)c2=O)cc1 | inconclusive: 5.62 µM [inhibitor, full curve, poor fit]
COc1ccc(/C=N/Nc2nc(N3CCCC3)nc(N3CCCC3)n2)cc1 | inactive
COc1ccc(C2CC(=O)N(CC(=O)Nc3cccc(C)c3C)c3ccccc3S2)cc1OC (stereo not drawn) | inconclusive: 22.4 µM [inhibitor, single point]
O=C(c1ccccc1C(=O)N1CCN(c2ccc(F)cc2)CC1)N1CCN(c2ccc(F)cc2)CC1 | inconclusive: 35.5 µM [inhibitor, single point]
Cc1nn(CCCNC(=O)C2CCCO2)cc1Br (stereo not drawn) | inconclusive: 0.259 µM [inhibitor, single point]
COc1ccccc1Nc1cc(N2CCOCC2)c2nonc2c1[N+](=O)[O-] | inactive
Cc1cc(C(=O)NC2CCCc3c2cnn3-c2ccc(C(C)(C)C)cc2)nn1C (stereo not drawn) | inconclusive: 1.12 µM [inhibitor, full curve]
COC(=O)CSc1nnc2n(-c3ccc(OC)cc3)c(=O)c3c4c(sc3n12)CCCCC4 | inconclusive: 3.55 µM [activator, single point]
Cc1cc(C(=O)Nc2sccc2C(N)=O)c(C)o1 | inconclusive: 2 µM [activator, partial curve, poor fit]
OC(CNCCc1c[nH]c2ccccc12)C(F)(F)F (stereo not drawn) | inconclusive: 8.91 µM [activator, partial curve]
CCCCCC/C(=N\NS(C)(=O)=O)c1ccccc1 | inconclusive: 0.103 µM [activator, full curve, poor fit]

Already shown: 2 of the compounds above.
Compound | Potency
OC(CNCCc1c[nH]c2ccccc12)C(F)(F)F (stereo not drawn) | inconclusive: 8.91 µM [activator, partial curve]
CCCCCC/C(=N\NS(C)(=O)=O)c1ccccc1 | inconclusive: 0.103 µM [activator, full curve, poor fit]
